# Data: PubChem BioAssay (EPA / NIEHS)
# Amino acid sequences for entries named in this document (tags omitted).
# UniProt P04637, whole entry, looked up: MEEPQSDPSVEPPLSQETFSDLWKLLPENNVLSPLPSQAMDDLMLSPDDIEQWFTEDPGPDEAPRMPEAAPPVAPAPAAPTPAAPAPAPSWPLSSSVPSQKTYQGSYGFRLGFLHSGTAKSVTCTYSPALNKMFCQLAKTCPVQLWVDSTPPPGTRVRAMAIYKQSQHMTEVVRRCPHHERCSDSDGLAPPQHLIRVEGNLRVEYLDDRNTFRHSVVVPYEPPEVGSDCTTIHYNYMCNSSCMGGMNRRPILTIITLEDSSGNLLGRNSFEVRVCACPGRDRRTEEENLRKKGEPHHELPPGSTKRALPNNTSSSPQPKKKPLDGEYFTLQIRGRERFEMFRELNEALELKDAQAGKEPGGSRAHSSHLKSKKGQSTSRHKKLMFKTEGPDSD
# Values joined by “and” are separate entries in the source; they are usually repeats but may differ in a detail not shown here. Equal values may be shown once. The shares of active, inactive and inconclusive entries below differ from those in the screen. Potencies of inconclusive entries are doubtful fits and often do not repeat. Active and inactive are the calls of the source. How the source made its calls: active means hit-call score of the fitted dose curve at least 0.9, where 1 is the maximum; inconclusive means response in the unintended direction; inactive means score below 0.9.
# System: not listed separately
# Assay: TOX21_p53_BLA_p3_viability: Viability Assessment in the Tox21 HCT-116 p53 Agonism Beta-lactamase Assay, Phase 3 (AID 2283593);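 further: cells exposed to compound for 16 h before reading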
# How it was run: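 Cellular ATP was quantified by CellTiter-Glo luminescence, read after 30 min at room temperature. Beforehand, HCT116 cells (4000/well) received compound 5 h post-seeding, 217-fold diluted from DMSO, then incubated 16 h at 37C.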
SMILES,outcome,AC50
OC1CCCc2ccccc21 (stereo unspecified),inactive,–
COc1ccc(-c2nc3ccc(C4=NNC(=O)CC4C)cc3[nH]2)cc1 (stereo unspecified),–,inconclusive: 23 µM
Clc1cc(Cl)nc(Cl)n1,–,inconclusive: 0.112 µM
O=C1O[C@H](CO)[C@@H](O)[C@H](O)[C@H]1O,–,inconclusive: 46 µM and inconclusive: 23 µM
Cc1cccc(O)c1N,inactive,–
CCOc1nc2cccc(C(=O)O)c2n1Cc1ccc(-c2ccccc2-c2nn[nH]n2)cc1,–,active: 35.8 µM
O=Cc1c2ccccc2c(Cl)c2ccccc12,–,inconclusive: 1.12 µM
CCNC(=O)NCCCOc1cccc(CN2CCCCC2)c1,–,inconclusive: 23 µM
O=C1OC(O)C(C(Cl)Cl)=C1Cl (stereo unspecified),–,active: 14.6 µM
OC(CN1CCCCC1)c1cc(-c2ccccc2)on1 (stereo unspecified),–,inconclusive: 40.2 µM
COc1ccc(CCNCC(O)COc2cccc(C)c2)cc1OC (stereo unspecified),–,inconclusive: 23 µM
C=C1CC[C@H](O)C/C1=C/C=C1\CCC[C@]2(C)[C@@H]([C@H](C)CC[C@@H](O)C(C)(C)O)CC[C@@H]12,–,inconclusive: 23 µM
O=C(c1ccc(O)cc1)c1ccc(Cl)cc1,inactive,–
CC1=C(C/C=C(\C)CCC[C@H](C)CCC[C@H](C)CCCC(C)C)C(=O)c2ccccc2C1=O,–,inconclusive: 23 µM
COc1cnc(NS(=O)(=O)c2ccc(N)cc2)nc1,–,inconclusive: 0.104 µM
CC(C)(C)NCC(O)COc1cccc2c1CCC(=O)N2 (stereo unspecified),–,inconclusive: 10.3 µM
CNC(=O)N(c1ccccc1)c1ccccc1,–,inconclusive: 88.3 µM
CC(=O)OCC(=O)[C@@]1(O)CC[C@H]2[C@@H]3C[C@H](C)C4=CC(=O)C=C[C@]4(C)[C@H]3[C@@H](O)C[C@@]21C,inactive,–
Cc1ccc(O)c([C@H](CCN(C(C)C)C(C)C)c2ccccc2)c1,–,inconclusive: 1.26 µM
O=C(O)/C=C/c1cnc[nH]1,inactive,–
Cc1ccnc2c1NC(=O)c1cccnc1N2C1CC1,–,inconclusive: 43.3 µM and inconclusive: 0.237 nM
CCc1ccc(Br)cc1,inactive,–
O=C(O)CCc1nc(-c2ccccc2)c(-c2ccccc2)o1,–,inconclusive: 23 µM
Cc1cccc2c1cc1ccc3cccc4ccc2c1c34,inactive,–
Cc1nccn1CC1CCc2c(c3ccccc3n2C)C1=O (stereo unspecified),inactive,–
O=C(O)c1cc(O)c2c(c1)[O][Bi][O]2,–,inconclusive: 23 µM
Cc1cccc(C)c1NC(=O)c1cc(S(N)(=O)=O)c(Cl)cc1O,inactive,–

# Copied from the listing (two entries):
SMILES,outcome,AC50
OC1CCCc2ccccc21 (stereo unspecified),inactive,–
COc1ccc(-c2nc3ccc(C4=NNC(=O)CC4C)cc3[nH]2)cc1 (stereo unspecified),–,inconclusive: 23 µM

# Grouped by structure, the compounds so far containing an NH in an aromatic ring
SMILES,outcome,AC50
COc1ccc(-c2nc3ccc(C4=NNC(=O)CC4C)cc3[nH]2)cc1 (stereo unspecified),–,inconclusive: 23 µM
CCOc1nc2cccc(C(=O)O)c2n1Cc1ccc(-c2ccccc2-c2nn[nH]n2)cc1,–,active: 35.8 µM
O=C(O)/C=C/c1cnc[nH]1,inactive,–

# Biological target: Cellular tumor antigen p53 (Homo sapiens) (UniProt P04637)
# Assay: TOX21_p53_BLA_p3_ratio: Tox21 HCT-116 p53 Agonism Beta-lactamase Assay, Ratio, Phase 3 (AID 2283596)
# How it was run: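 Cells were seeded at 4000/well, rested 5 h at 37C, then dosed with DMSO compound solutions (217-fold dilution) for 16 h. CCF4-AM substrate was loaded for 2 h at room temperature, and the 460/530 nm emission ratio was fitted for gain of signal versus DMSO.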
SMILES,AC50,outcome
CNCCCN1c2ccccc2CCc2ccccc21,inconclusive: 10.3 µM,–
NC(=O)Oc1ccc(Cc2ccccc2)cc1,inconclusive: 23 µM,–
CO[C@@]1(NC(=O)CSC[C@@H](N)C(=O)O)C(=O)N2C(C(=O)O)=C(CSc3nnnn3C)CS[C@@H]21,inconclusive: 38.2 µM,–
Cc1cnc(C(=O)O)c[n+]1[O-],inconclusive: 23 µM,–
O=C1NC2CCCCN2C12CCN(CCCN1c3ccccc3CCc3ccc(Cl)cc31)CC2 (stereo unspecified),inconclusive: 23 µM,–
ClC/C=C\CCl,–,inactive
CC[C@]12CCCN3CCc4c(n(c5ccccc45)C(=O)C1)[C@@H]32,active: 4.33 µM,–
CN1[C@@H]2CC[C@H]1CC(OC(=O)c1c[nH]c3ccccc13)C2 (stereo partly specified),–,inactive
CC1(C)[C@@H](O[C@H]2O[C@H](C(=O)O)[C@@H](O)[C@H](O)[C@H]2O[C@@H]2O[C@H](C(=O)O)[C@@H](O)[C@H](O)[C@H]2O)CC[C@]2(C)[C@H]3C(=O)C=C4[C@@H]5C[C@@](C)(C(=O)O)CC[C@]5(C)CC[C@@]4(C)[C@]3(C)CC[C@@H]12,inconclusive: 36.1 µM,–
CC(C)=CCC/C(C)=C/CC/C(C)=C/CC/C=C(\C)CC/C=C(\C)CCC=C(C)C,inconclusive: 36.5 µM and inconclusive: 23 µM,–
OC(CCCN1CCCCC1)(c1ccccc1)c1ccccc1,inconclusive: 23 µM,–
CN[C@H]1CCc2cc(OC)c(OC)c(OC)c2-c2ccc(OC)c(=O)cc21,inconclusive: 23 µM,–
OC1CCCc2ccccc21 (stereo unspecified),inconclusive: 46.5 µM,–
COc1ccc(-c2nc3ccc(C4=NNC(=O)CC4C)cc3[nH]2)cc1 (stereo unspecified),active: 21.5 µM,–
Clc1cc(Cl)nc(Cl)n1,inconclusive: 76.1 µM,–
O=C1O[C@H](CO)[C@@H](O)[C@H](O)[C@H]1O,inconclusive: 23 µM,–
Cc1cccc(O)c1N,inconclusive: 46.5 µM,–
CCOc1nc2cccc(C(=O)O)c2n1Cc1ccc(-c2ccccc2-c2nn[nH]n2)cc1,active: 43.3 µM,–
O=Cc1c2ccccc2c(Cl)c2ccccc12,inconclusive: 23.1 µM,–
CCNC(=O)NCCCOc1cccc(CN2CCCCC2)c1,–,inactive

SMILES,AC50,outcome
O=C1OC(O)C(C(Cl)Cl)=C1Cl (stereo unspecified),active: 13.3 µM,–
OC(CN1CCCCC1)c1cc(-c2ccccc2)on1 (stereo unspecified),inconclusive: 40.5 µM,–
COc1ccc(CCNCC(O)COc2cccc(C)c2)cc1OC (stereo unspecified),inconclusive: 23 µM,–
C=C1CC[C@H](O)C/C1=C/C=C1\CCC[C@]2(C)[C@@H]([C@H](C)CC[C@@H](O)C(C)(C)O)CC[C@@H]12,active: 26.9 µM,–
O=C(c1ccc(O)cc1)c1ccc(Cl)cc1,active: 80 µM,–
CC1=C(C/C=C(\C)CCC[C@H](C)CCC[C@H](C)CCCC(C)C)C(=O)c2ccccc2C1=O,inconclusive: 23 µM,–
COc1cnc(NS(=O)(=O)c2ccc(N)cc2)nc1,inconclusive: 10.3 µM,–
CC(C)(C)NCC(O)COc1cccc2c1CCC(=O)N2 (stereo unspecified),inconclusive: 10.3 µM,–
CNC(=O)N(c1ccccc1)c1ccccc1,inconclusive: 46.2 µM,–
CC(=O)OCC(=O)[C@@]1(O)CC[C@H]2[C@@H]3C[C@H](C)C4=CC(=O)C=C[C@]4(C)[C@H]3[C@@H](O)C[C@@]21C,inconclusive: 23 µM,–
Cc1ccc(O)c([C@H](CCN(C(C)C)C(C)C)c2ccccc2)c1,inconclusive: 10.8 µM,–
O=C(O)/C=C/c1cnc[nH]1,inconclusive: 46.1 µM,–
Cc1ccnc2c1NC(=O)c1cccnc1N2C1CC1,–,inactive
CCc1ccc(Br)cc1,inconclusive: 47.1 µM,–
O=C(O)CCc1nc(-c2ccccc2)c(-c2ccccc2)o1,inconclusive: 23 µM,–
Cc1cccc2c1cc1ccc3cccc4ccc2c1c34,active: 2.77 µM,–
Cc1nccn1CC1CCc2c(c3ccccc3n2C)C1=O (stereo unspecified),inconclusive: 23 µM and inconclusive: 10.3 µM,–
O=C(O)c1cc(O)c2c(c1)[O][Bi][O]2,inconclusive: 23 µM,–
Cc1cccc(C)c1NC(=O)c1cc(S(N)(=O)=O)c(Cl)cc1O,inconclusive: 23 µM,–
